The name of at least one read-out is uncertain.
Target: rat SAPK (isoform β) (Rattus norvegicus, UniProt P49187)
Assay: SAPK FlashPlate Assay (inhibition of cJun phosphorylation)
Assay type: biochemical
Details: concentration at which ≥50% inhibition of cJun phosphorylation was found; 30 min
Method: "IC50 " refers to the concentration of a particular 4,5-pyrazinoxindole required to inhibit 50% of cJun phosphorylation, which is a measure of inhibition of SAPK activity. IC50 can be measured, inter alia, using the assay described herein in Example 7, infra.
Human JNK is highly homologous to rat SAPK. To measure the inhibitory activity of test compounds, the compounds were tested in the rat SAPK assay. For the SAPK assay, purified GST-cJun (a chimeric protein containing cJun, a natural substrate of JNK) was coated on 96 well FlashPlates (New England Nuclear, Boston, Mass.). Purified rat SAPK (isoform β, Kyriakis et al. supra) was preincubated with preparations containing MEKK-1 and MKK4 for 30 minutes at 37° C. in assay buffer containing 25 mM HEPES, pH 7.5, 150 mM NaCl, 20 mM MgCl2, 2 mM DTT, 0.001% Tween 20, 1 μM ATP freshly added. In the preincubation step, MEKK-1 phosphorylates and activates MKK-4, which in turn phosphorylates and activates SAPK. […] The plates were incubated for 30 minutes at 37° C., then washed with PBS, 0.01% Tween 20, and counted in the Topcount scintillation counter (Packard Instrument Co., Downers Grove, Ill.). […] The percent inhibition of cJun phosphorylation (a measure of inhibition of SAPK activity) was determined by the following formula: [formula] […]

Protein sequences, listed by entry. Tags and fused reporters are not part of them. Lines headed by an entry give the natural chain unless they say otherwise; changes in a name come on top.
UniProt P49187: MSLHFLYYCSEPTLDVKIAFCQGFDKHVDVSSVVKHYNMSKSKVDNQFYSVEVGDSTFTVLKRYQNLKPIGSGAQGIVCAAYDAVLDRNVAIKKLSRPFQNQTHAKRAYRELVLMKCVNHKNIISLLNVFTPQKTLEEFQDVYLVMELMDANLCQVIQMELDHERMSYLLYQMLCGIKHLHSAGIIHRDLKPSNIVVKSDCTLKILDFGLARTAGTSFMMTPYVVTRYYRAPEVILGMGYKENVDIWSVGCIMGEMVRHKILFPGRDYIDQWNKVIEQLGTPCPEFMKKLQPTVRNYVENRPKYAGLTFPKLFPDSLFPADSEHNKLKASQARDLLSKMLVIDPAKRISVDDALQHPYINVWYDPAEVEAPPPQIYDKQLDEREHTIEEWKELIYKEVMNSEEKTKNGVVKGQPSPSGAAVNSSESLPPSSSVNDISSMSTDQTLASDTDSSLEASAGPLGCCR

(Z)-7,9-Dihydro-9-[(3-methoxy-1H-pyrrol-2-yl)methylene]-2-methyl-3-phenyl-8H-pyrrolo[3,2-f]quinoxalin-8-one and (Z)-7,9-dihydro-9-[(3-methoxy-1H-pyrrol-2-yl)methylene]-3-methyl-2-phenyl- 8H-pyrrolo[3,2-f]quinoxalin-8-one [C]
IC50: 500 nM

Mixture of (Z)-3-butyl-7,9-dihydro-9-[(3-methoxy-1H-pyrrol-2-yl)methylene]-2-methyl-8H-pyrrolo[3,2-f]quinoxalin-8-one and (Z)-2-butyl-7,9-dihydro-9-[(3-methoxy-1H-pyrrol-2-yl)methylene]-3-methyl-8H-pyrrolo[3,2-f]quinoxalin-8-one
IC50: 500 nM

Source: US6221867A, “4,5-pyrazinoxindoles” (Hoffmann-La Roche Inc., priority 1999, dated 2001)
